Experimental data as given in paper doi:10.1101/2025.09.24.678334.
These are yes or no findings as the source states them, for the method shown. Some entries that bind do so weakly or less than the wild type.

The chains behind the UniProt entries cited, without tags or fusion partners. Where a name states a change or a piece, a line headed by the entry shows the natural chain unless it says otherwise. A line that says so, or that is headed by a name, gives the form on record, which may keep a tag or linker.
S119A S120A cofilin (P23528, form named): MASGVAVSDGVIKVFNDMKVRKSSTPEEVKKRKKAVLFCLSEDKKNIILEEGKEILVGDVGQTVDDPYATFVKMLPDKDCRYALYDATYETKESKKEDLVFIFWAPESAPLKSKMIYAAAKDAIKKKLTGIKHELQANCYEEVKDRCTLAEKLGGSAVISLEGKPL

Biological target: Importin 9 (IPO9), GST tag cleaved (human) (UniProt Q96P70)
Experiment: SPR; IPO9 (80 nM, about 6000 RU) coupled by EDC/NHS to a CM5 chip; concentration series of analyte (RanGTP 0-1 μM, cofilin 0-55 μM, profilin 0-60 μM); Biacore 8k; 1X HBS-EP+; both purified

Row | binding | Substance
1 | binds weakly | S119A S120A cofilin (from UniProt P23528 1-166)
2 | binds weakly | human cofilin-1, wild type (from UniProt P23528 1-166)
